No constants are given. Whether binding was seen depends on the method and setting. In cells and extracts the contact can be indirect. Some entries that bind do so weakly or less than the wild type.
Target: T1, ZEB1 (human (endogenous in MCF7/TamR)) (UniProt P37275)
T1 sequence: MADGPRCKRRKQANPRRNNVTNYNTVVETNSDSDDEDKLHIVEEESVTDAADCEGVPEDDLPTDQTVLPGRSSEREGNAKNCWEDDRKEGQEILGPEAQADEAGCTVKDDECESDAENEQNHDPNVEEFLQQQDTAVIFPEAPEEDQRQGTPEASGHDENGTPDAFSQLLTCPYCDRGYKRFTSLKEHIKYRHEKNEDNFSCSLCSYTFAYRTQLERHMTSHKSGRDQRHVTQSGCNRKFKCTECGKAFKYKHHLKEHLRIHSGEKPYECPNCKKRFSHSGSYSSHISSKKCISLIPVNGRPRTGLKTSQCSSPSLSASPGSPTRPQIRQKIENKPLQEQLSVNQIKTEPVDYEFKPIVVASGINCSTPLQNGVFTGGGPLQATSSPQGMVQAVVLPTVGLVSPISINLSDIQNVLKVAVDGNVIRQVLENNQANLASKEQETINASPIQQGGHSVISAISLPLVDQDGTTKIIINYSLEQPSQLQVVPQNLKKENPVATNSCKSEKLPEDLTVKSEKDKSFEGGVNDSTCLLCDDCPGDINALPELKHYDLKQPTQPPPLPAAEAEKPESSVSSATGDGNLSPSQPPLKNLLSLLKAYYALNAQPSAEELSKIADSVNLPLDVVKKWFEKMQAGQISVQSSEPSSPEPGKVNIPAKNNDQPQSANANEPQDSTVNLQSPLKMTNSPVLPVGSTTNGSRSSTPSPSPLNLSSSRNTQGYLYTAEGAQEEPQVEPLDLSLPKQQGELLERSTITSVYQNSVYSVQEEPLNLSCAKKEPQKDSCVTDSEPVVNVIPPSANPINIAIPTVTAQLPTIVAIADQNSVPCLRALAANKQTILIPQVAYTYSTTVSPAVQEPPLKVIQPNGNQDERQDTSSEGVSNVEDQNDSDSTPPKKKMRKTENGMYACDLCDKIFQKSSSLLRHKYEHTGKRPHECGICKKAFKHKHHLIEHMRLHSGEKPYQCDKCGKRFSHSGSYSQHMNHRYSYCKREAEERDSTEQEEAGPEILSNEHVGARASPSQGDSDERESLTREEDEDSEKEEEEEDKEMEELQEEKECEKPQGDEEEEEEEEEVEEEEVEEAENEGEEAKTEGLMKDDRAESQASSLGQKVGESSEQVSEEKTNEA
Test: co-IP; MCF7/TamR cells lysed in RIPA buffer; supernatant incubated overnight at 4 °C with anti-ZEB1 or normal control IgG antibody; protein A/G agarose beads; IP buffer with 0.1 mM EDTA, 50 mM NaCl, 50 mM Tris-HCl; western blot of the precipitate

By UniProt entry, the sequences of proteins in these tests, tags left out.
UniProt Q92769: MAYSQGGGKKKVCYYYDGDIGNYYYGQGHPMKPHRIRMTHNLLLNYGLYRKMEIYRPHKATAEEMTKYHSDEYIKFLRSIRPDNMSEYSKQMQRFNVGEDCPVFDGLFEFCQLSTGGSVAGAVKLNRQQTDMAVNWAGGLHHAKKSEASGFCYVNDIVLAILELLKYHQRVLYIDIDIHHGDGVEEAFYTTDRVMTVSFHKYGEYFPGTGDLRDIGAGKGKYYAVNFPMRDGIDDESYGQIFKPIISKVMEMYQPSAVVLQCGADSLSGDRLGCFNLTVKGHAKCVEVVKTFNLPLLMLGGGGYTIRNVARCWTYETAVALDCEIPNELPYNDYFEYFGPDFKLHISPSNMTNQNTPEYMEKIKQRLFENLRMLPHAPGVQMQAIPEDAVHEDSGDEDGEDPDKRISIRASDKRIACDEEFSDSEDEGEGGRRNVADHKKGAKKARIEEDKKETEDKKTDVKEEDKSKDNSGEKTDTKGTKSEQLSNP
UniProt Q13547: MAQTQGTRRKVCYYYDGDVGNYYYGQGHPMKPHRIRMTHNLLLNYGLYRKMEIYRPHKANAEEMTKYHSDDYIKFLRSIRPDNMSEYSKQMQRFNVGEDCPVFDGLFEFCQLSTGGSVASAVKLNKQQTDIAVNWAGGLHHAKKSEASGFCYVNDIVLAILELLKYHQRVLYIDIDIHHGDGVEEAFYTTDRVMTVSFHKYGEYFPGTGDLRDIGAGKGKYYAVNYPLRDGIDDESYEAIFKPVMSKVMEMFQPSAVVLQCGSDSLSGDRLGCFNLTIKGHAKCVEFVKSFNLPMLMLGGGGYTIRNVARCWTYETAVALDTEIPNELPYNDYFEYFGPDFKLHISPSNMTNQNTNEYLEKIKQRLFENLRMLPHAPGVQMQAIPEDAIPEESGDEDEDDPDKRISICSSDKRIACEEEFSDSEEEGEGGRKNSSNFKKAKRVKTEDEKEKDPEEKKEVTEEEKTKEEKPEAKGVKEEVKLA

binding	Substance
binds	HDAC2 (from UniProt Q92769 1-488) (enzyme)
binds	HDAC1 (from UniProt Q13547 1-482) (enzyme)

From publication PMC10131819
